Test results reported in publication PMC2567031.
No constants are given. Whether binding was seen depends on the method and setting. In cells and extracts the contact can be indirect.

Sequences of proteins named here, by UniProt entry; tags and fusion partners are left off. Residues count along the entry.
UniProt P56480, residues 47-529: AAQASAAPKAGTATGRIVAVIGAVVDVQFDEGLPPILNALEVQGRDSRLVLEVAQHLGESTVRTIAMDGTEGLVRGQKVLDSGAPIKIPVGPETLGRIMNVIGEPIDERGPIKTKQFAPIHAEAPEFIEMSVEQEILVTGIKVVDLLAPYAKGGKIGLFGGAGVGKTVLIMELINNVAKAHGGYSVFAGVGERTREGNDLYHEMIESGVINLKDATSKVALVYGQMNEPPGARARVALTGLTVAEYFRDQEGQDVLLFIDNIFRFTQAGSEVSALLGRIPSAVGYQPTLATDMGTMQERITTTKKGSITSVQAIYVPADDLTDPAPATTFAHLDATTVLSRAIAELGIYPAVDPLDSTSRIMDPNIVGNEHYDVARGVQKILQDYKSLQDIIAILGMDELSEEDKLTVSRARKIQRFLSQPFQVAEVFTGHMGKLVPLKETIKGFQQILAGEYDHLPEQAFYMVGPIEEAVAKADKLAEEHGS
UniProt P00441, residues 2-154: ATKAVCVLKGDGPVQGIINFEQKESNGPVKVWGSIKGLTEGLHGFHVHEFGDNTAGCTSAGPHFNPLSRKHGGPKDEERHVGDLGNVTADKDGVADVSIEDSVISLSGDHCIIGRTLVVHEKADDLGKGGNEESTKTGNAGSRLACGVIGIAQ

Target: ATP synthase β subunit (mouse (endogenous in mouse spinal cord)) (UniProt P56480)
Assay: co-IP; mouse spinal cord extracts; precipitation with antibodies to ATP1A, Hsp/Hsc70 or ATP5B on protein A/G plus-agarose; blots for hSOD1 or uSOD1

“wild-type human SOD1 with the FLAG sequence (WF SOD1) (from UniProt P00441 2-154)” was tested, and the binding was “no binding”.
